Measured values: the supplement of paper PMC10849652
This is one part of the list.

Chains of the proteins cited; added tags and fusions are not shown. Lines headed by an entry give the natural chain unless they say otherwise; changes in a name come on top.
UniProt Q8WU79: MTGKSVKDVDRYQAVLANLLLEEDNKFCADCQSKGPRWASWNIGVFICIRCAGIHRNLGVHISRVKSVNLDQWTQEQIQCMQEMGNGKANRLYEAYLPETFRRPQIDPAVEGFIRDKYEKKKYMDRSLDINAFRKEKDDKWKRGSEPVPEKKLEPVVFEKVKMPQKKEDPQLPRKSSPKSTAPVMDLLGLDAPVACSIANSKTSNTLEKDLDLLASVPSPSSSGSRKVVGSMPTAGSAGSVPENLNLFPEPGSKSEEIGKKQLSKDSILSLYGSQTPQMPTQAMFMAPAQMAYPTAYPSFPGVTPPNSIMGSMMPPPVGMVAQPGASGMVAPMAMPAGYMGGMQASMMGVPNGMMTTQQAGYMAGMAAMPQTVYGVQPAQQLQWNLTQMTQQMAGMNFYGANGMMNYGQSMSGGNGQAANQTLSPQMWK
UniProt P35610: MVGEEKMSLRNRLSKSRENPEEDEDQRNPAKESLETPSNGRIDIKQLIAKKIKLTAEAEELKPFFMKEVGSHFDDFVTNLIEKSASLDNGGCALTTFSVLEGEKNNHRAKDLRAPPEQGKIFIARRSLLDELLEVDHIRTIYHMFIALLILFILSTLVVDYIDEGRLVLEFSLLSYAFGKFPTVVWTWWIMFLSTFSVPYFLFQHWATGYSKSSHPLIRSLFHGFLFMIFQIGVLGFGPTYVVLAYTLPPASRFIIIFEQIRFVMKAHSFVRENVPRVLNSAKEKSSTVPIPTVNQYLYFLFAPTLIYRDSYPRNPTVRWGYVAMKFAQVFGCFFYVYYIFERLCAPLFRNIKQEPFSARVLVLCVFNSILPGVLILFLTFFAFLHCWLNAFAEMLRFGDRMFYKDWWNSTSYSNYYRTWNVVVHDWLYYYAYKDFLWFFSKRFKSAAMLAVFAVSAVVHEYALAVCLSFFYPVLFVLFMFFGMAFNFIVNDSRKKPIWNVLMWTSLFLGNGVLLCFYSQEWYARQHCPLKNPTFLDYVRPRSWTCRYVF
UniProt P19634, whole entry, looked up: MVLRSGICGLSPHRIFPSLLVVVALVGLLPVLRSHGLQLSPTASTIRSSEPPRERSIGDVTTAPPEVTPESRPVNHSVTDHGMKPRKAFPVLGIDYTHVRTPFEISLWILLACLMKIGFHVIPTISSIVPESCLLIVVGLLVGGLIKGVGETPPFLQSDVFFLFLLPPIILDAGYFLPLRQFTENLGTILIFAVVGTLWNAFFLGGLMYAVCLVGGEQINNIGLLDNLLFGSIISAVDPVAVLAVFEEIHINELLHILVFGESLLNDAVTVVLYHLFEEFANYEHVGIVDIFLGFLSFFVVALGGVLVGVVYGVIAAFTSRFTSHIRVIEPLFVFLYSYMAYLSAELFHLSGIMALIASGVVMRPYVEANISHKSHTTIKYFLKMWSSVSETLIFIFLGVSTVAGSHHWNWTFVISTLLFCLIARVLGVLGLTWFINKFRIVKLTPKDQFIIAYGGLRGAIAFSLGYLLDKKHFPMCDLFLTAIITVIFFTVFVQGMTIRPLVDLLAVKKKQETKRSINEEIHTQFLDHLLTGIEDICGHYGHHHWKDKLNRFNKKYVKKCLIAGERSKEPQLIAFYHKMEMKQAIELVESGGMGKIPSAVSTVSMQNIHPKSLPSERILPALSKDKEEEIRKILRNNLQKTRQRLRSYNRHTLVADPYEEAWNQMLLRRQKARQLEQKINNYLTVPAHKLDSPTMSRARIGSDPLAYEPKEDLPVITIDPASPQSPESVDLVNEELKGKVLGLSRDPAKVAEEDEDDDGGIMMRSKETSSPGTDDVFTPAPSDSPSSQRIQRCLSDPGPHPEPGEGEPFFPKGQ
UniProt Q9UNH7: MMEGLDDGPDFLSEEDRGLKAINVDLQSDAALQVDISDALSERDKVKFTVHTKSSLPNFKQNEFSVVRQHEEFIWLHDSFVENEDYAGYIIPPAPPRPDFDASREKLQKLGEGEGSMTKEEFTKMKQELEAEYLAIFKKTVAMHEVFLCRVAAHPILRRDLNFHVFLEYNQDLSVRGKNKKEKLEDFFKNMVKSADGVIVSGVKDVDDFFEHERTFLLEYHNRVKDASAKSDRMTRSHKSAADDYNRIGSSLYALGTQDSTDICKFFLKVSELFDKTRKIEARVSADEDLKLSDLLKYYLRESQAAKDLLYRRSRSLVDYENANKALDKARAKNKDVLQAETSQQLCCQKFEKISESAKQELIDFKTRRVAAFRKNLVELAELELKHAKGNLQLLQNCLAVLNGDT
UniProt Q02447: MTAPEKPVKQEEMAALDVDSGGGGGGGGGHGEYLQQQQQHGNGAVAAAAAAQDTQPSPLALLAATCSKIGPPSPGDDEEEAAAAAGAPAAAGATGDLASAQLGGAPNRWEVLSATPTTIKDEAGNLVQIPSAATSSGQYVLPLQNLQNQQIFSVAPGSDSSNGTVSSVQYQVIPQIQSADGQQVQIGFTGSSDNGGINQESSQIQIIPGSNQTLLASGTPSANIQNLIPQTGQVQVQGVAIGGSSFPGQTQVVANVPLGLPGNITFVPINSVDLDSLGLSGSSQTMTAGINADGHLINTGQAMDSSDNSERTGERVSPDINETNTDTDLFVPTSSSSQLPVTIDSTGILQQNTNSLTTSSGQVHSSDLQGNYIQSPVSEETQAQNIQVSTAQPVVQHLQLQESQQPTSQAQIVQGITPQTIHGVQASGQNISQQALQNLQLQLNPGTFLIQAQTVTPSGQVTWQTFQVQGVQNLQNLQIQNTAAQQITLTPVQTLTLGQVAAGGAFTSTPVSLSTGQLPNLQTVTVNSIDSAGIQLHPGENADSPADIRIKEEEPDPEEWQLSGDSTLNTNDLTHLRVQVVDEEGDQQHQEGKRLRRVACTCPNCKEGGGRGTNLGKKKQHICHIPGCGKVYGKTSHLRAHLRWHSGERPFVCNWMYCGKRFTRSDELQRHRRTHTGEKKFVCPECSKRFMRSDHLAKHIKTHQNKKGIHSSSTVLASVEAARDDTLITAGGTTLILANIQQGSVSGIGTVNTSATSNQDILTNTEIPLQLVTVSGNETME
UniProt Q9H2G2: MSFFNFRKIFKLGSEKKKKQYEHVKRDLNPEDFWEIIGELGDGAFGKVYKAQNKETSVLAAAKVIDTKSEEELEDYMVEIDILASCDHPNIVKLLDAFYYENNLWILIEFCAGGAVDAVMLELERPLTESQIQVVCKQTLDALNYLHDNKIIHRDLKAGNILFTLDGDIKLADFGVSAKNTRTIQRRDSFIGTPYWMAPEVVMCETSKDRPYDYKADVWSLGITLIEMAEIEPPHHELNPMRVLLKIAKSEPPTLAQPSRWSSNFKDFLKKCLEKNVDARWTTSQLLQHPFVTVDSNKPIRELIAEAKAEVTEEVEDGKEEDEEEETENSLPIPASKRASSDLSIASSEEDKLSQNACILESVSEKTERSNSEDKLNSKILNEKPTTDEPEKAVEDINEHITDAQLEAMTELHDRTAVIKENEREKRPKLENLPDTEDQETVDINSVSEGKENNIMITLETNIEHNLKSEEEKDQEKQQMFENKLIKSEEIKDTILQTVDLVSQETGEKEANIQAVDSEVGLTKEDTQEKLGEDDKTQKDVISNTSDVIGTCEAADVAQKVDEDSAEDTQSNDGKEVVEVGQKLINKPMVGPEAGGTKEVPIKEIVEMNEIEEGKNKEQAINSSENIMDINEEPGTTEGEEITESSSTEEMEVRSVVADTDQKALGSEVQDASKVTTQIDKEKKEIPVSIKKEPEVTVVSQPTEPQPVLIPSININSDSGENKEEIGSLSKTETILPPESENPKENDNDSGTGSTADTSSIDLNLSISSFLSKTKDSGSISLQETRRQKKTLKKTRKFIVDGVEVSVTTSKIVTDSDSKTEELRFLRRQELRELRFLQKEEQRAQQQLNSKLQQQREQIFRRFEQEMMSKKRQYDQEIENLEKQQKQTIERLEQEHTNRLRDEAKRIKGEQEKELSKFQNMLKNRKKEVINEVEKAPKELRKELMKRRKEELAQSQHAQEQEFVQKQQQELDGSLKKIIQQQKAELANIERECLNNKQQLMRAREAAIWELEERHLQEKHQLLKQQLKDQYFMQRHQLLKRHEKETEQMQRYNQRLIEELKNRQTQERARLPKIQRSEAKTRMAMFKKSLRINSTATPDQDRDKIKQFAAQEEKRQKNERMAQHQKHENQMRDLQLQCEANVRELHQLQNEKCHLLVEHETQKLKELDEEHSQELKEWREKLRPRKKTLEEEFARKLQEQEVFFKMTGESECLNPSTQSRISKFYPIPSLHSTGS
UniProt Q9H4L7: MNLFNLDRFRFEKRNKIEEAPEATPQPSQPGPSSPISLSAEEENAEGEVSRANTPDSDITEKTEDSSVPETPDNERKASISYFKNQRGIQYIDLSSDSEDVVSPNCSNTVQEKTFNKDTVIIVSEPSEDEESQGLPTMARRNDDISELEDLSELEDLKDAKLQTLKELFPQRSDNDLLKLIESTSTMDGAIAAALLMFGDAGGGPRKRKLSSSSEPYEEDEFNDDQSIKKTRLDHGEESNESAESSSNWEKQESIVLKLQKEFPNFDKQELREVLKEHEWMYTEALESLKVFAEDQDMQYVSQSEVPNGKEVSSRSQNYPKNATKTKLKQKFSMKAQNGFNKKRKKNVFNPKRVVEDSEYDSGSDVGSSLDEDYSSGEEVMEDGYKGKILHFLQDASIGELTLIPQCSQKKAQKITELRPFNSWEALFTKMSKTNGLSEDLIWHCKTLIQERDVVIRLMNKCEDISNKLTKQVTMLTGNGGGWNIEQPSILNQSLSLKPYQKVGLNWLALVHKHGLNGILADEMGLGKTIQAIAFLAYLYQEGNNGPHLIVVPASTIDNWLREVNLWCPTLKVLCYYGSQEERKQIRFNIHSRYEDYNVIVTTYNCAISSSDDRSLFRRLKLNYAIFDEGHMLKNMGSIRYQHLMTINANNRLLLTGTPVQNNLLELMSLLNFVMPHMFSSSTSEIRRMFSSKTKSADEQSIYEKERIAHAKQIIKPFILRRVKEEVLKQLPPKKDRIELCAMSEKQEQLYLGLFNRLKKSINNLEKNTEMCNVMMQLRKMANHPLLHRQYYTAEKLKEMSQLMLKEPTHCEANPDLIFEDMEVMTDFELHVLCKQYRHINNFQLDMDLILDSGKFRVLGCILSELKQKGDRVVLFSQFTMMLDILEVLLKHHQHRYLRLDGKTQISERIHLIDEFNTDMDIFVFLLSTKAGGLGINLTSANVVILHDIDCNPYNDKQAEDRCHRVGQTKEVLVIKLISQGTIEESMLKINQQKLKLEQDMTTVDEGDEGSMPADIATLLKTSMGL
UniProt Q92536: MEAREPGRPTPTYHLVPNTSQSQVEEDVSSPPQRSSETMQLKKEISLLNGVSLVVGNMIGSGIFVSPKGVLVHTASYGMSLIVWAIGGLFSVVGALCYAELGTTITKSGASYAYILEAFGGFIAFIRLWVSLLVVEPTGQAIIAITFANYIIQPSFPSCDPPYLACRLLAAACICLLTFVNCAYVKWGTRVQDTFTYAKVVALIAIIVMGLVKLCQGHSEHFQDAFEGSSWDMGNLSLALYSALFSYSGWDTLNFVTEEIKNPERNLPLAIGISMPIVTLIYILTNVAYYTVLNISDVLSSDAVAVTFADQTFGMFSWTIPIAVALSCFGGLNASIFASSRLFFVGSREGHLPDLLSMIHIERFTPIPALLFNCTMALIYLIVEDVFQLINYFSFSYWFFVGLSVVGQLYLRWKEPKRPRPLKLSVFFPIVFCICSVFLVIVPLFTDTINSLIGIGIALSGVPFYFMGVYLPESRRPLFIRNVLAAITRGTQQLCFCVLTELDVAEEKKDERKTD
UniProt Q9Y5X1: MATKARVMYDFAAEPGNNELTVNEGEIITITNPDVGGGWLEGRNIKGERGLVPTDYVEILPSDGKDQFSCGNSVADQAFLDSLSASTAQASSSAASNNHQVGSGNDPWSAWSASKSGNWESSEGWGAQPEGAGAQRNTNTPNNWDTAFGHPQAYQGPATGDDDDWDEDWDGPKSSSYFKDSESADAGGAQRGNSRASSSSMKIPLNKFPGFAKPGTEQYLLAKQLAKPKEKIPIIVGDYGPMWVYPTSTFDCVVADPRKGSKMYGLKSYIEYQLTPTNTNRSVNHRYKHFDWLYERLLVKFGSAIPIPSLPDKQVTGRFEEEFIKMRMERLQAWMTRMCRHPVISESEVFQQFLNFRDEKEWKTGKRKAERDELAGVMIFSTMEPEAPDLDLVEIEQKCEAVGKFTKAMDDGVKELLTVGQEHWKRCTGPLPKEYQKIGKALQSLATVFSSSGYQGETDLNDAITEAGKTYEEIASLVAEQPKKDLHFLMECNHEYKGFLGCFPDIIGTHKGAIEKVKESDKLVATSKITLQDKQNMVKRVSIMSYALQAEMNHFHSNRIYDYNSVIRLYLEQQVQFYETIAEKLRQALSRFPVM
UniProt O60493, whole entry, looked up: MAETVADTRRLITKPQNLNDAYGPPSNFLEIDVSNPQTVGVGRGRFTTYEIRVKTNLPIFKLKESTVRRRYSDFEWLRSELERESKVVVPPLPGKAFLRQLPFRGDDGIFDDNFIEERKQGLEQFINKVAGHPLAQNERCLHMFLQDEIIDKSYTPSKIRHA
UniProt Q8WVI0: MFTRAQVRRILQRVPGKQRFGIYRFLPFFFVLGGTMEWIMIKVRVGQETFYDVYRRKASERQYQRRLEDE

Key:
Test in all cases: log2 fold change, soluble protein after heating vs DMSO (PISA); higher = thermal stabilisation; K562 cells, 10 uM, 30 min; active = over 0.2 and 3.5 SD of the protein, either way, in both replicates (recomputed)
[1] = compound: CN1CCN(CCOc2cc(OC3CCOCC3)c3c(Nc4c(Cl)ccc5c4OCO5)ncnc3c2)CC1 [saracatinib]
Method in brief: (§1)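 K562 cells at 2×10^6 cells/mL were given 10 μM compound for 30 min. Aliquots then went through 3 min of heating across 48°C-58°C, were pooled, and were extracted in PBS with 0.5% NP-40 at 4°C, and the supernatant after 21,000xg for 90 min was quantified by TMTpro 16plex LC-MS/MS with channel sums equalised. Thermal stability relative to control samples, from duplicates, is given as log2 fold change.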

[2] = compound: CN1CCN(c2nc(C3=C(c4c[nH]c5ccccc45)C(=O)NC3=O)c3ccccc3n2)CC1 [sotrastaurin]
Method in brief: as §1

[3] = compound: CN1CCc2c(c3ccccc3n2Cc2ccc(C(=O)NO)cc2)C1 [Tubastatin A]
Method in brief: as §1

[4] = compound: CNC(=O)C1=CC=CC=C1NC2=NC(=NC=C2Cl)NC3=C(C=C(C=C3)N4CCOCC4)OC
Method in brief: as §1

[5] = compound: CNC(=O)c1ccc(Nc2ncc(C(F)(F)F)c(NCc3nccnc3N(C)S(C)(=O)=O)n2)cc1 [defactinib]
Method in brief: as §1

[6] = compound: CNCc1ccc(-c2[nH]c3cc(F)cc4c3c2CCNC4=O)cc1 [rucaparib]
Method in brief: as §1

[7] = compound: CNc1nc(-c2ccc3c(N)n[nH]c3c2)cc(N2C[C@@H](C(=O)NC3CCCCC3)CC[C@H]2C)n1
Method in brief: as §1

[8] = compound: COC(=O)N[C@@H](C)CNc1nccc(-c2cn(C(C)C)nc2-c2cc(Cl)cc(NS(C)(=O)=O)c2F)n1 [encorafenib]
Method in brief: as §1

[9] = compound: COC(=O)[C@H](CCSC)NC(=O)C1=C(C=C(C=C1)NC[C@H](CS)N)C2=CC=CC=C2
Method in brief: as §1

[10] = compound: CN1CC[C@H](c2c(O)cc(O)c3c(=O)cc(-c4ccccc4Cl)oc23)[C@H](O)C1 [alvocidib]
Method in brief: as §1

Measured: log2 fold change

SNW1 (UniProt Q13573)
inactive: [1] 0.01 | [2] 0.003 | [3] -0.033 | [4] 0.038 | [5] 0.131 | [6] 0.042 | [7] -0.082 | [8] -0.005 | [9] -0.005

SMAD9 (UniProt O15198)
inactive: [1] 0.076 | [2] 0.078 | [3] -0.003 | [4] -0.013 | [5] -0.076 | [6] -0.094 | [7] 0.055 | [8] -0.001 | [9] -0.049

SMAP2 (UniProt Q8WU79)
inactive: [1] -0.047 | [2] -0.052 | [3] 0.029 | [4] 0.107 | [5] -0.12 | [6] 0.114 | [7] -0.026 | [8] 0.087 | [9] -0.043

SOAT1 (UniProt P35610)
inactive: [1] 0.026 | [2] -0.06 | [3] -0.057 | [4] 0.186 | [5] -0.053 | [6] -0.064 | [7] 0.014 | [8] 0.122 | [9] 0.111

SLC9A1 (UniProt P19634)
inactive: [1] 0.064 | [2] 0.037 | [3] -0.087 | [4] 0.176 | [5] -0.02 | [6] 0.033 | [7] -0.122 | [8] 0.043 | [9] 0

SMAP (UniProt O00193)
inactive: [1] -0.035 | [2] 0.016 | [3] 0.016 | [4] -0.069 | [5] -0.001 | [6] -0.064 | [7] 0.009 | [8] -0.054 | [9] 0.013

SNX6 (UniProt Q9UNH7)
inactive: [1] -0.018 | [2] 0.026 | [3] -0.051 | [4] -0.125 | [5] -0.054 | [6] -0.016 | [7] 0.041 | [8] 0.042 | [9] -0.009

SP3 (UniProt Q02447)
inactive: [1] 0.048 | [2] -0.122 | [3] -0.205 | [4] -0.032 | [5] 0.042 | [6] -0.004 | [7] -0.05 | [8] -0.053 | [9] 0.04

SNRPD3 (UniProt P62318)
inactive: [1] 0.004 | [2] 0.068 | [3] -0.097 | [4] 0.038 | [5] 0.137 | [6] 0.017 | [7] -0.098 | [8] -0.027 | [9] -0.003

SON isoform 9 (UniProt P18583)
inactive: [1] 0.05 | [2] -0.042 | [3] -0.088 | [4] 0.004 | [5] -0.123 | [6] 0.092 | [7] -0.323 | [8] -0.103 | [9] -0.012

SLK isoform 2 (UniProt Q9H2G2)
inactive: [1] -0.015 | [2] -0.192 | [3] 0.025 | [4] 0.079 | [5] -0.089 | [6] 0.048 | [7] 0.02 | [8] 0.052 | [9] 0.012

SLIRP (UniProt Q9GZT3)
inactive: [1] -0.068 | [2] -0.141 | [3] 0.019 | [4] -0.045 | [5] -0.005 | [6] 0.148 | [7] -0.185 | [8] -0.094 | [9] 0.096

SNX11 (UniProt Q9Y5W9)
inactive: [1] -0.055 | [2] -0.055 | [3] -0.014 | [4] 0.011 | [5] -0.02 | [6] -0.001 | [7] 0.055 | [8] -0.074 | [9] 0.002

SNX2 (UniProt O60749)
inactive: [1] 0.006 | [2] 0.002 | [3] 0.004 | [4] -0.114 | [5] -0.068 | [6] -0.004 | [7] 0.024 | [8] 0 | [9] -0.029

SMARCAD1 isoform 2 (UniProt Q9H4L7)
inactive: [1] -0.086 | [2] -0.043 | [3] 0.053 | [4] 0.016 | [5] -0.099 | [6] -0.056 | [7] 0.035 | [8] 0.029 | [9] -0.023

SLC9A6 isoform 2 (UniProt Q92581)
inactive: [1] 0.06 | [2] 0.048 | [3] -0.027 | [4] 0.001 | [5] -0.027 | [6] -0.015 | [7] -0.07 | [8] 0.008 | [9] 0.053

SNUPN (UniProt O95149)
inactive: [1] 0.052 | [2] -0.069 | [3] -0.036 | [4] -0.019 | [5] -0.056 | [6] -0.027 | [7] -0.04 | [8] 0.021 | [9] 0.028

SNAP23 isoform 2 (UniProt O00161)
inactive: [1] 0.286 | [2] 0.104 | [3] -0.108 | [4] 0.092 | [5] -0.088 | [6] -0.066 | [7] -0.101 | [8] 0.104 | [9] 0.071

SLC7A6 (UniProt Q92536)
inactive: [1] 0.018 | [2] 0.022 | [3] 0 | [4] -0.16 | [5] -0.056 | [6] -0.034 | [7] 0.027 | [8] 0.002 | [9] -0.047

SORT1 (UniProt Q99523)
inactive: [1] 0.038 | [2] 0.017 | [3] -0.011 | [4] 0.017 | [5] -0.033 | [6] 0 | [7] -0.027 | [8] -0.017 | [9] 0.014

SMARCE1 (UniProt Q969G3)
inactive: [1] -0.036 | [2] -0.204 | [3] 0.018 | [4] -0.032 | [6] -0.016 | [7] 0.023 | [8] 0.166 | [9] -0.199
active: [5] 0.579

SLC7A6OS (UniProt Q96CW6)
inactive: [1] 0.14 | [2] 0.008 | [3] -0.001 | [4] 0.031 | [5] -0.144 | [6] -0.05 | [7] -0.078 | [8] -0.004 | [9] 0.06

SNX14 (UniProt Q9Y5W7)
inactive: [1] -0.125 | [2] -0.069 | [3] 0.063 | [4] 0.011 | [5] -0.034 | [6] -0.011 | [7] 0.105 | [8] -0.025 | [9] 0.003

Two consecutive entries out of the list so far, for reference:
SLC7A6OS (UniProt Q96CW6)
inactive: [1] 0.14 | [2] 0.008 | [3] -0.001 | [4] 0.031 | [5] -0.144 | [6] -0.05 | [7] -0.078 | [8] -0.004 | [9] 0.06

SNX14 (UniProt Q9Y5W7)
inactive: [1] -0.125 | [2] -0.069 | [3] 0.063 | [4] 0.011 | [5] -0.034 | [6] -0.011 | [7] 0.105 | [8] -0.025 | [9] 0.003

(continued)

SNX9 (UniProt Q9Y5X1)
inactive: [1] 0.01 | [2] -0.064 | [3] -0.025 | [4] 0.038 | [5] -0.112 | [6] 0.058 | [7] -0.005 | [8] 0.049 | [9] 0

SMG1 (UniProt Q96Q15)
inactive: [1] -0.039 | [2] 0.041 | [3] 0.014 | [4] 0.042 | [5] 0 | [6] 0.025 | [7] -0.12 | [8] 0.023 | [9] 0.017

SMCHD1 (UniProt A6NHR9)
inactive: [1] -0.238 | [2] -0.084 | [3] 0.002 | [4] -0.028 | [5] -0.45 | [6] 0.183 | [7] 0.075 | [8] 0.188 | [9] -0.088

SNX3 (UniProt O60493)
inactive: [1] -0.086 | [2] 0.038 | [3] -0.005 | [4] 0.018 | [5] -0.067 | [6] 0.081 | [7] 0.026 | [8] 0.194 | [9] -0.079

SMARCA4 (UniProt P51532)
inactive: [1] -0.303 | [2] -0.086 | [4] -0.17 | [5] 0.134 | [6] 0.099 | [7] -0.091 | [8] 0.049 | [9] 0.022

SMIM4 (UniProt Q8WVI0)
inactive: [1] 0.009 | [10] -0.041 | [3] -0.084 | [4] -0.007 | [5] 0.019 | [6] 0.065 | [7] -0.11 | [8] -0.025 | [9] -0.011
